Test results published in patent publication US20040157798A1, “Drug for use in bone grafting” (priority 2001, published 2004).
At least one structure is not confirmed: it was looked up by name or label, or the drawing left a doubt.

What was measured:
[1] = system: 10 mm tibial defect model in rabbits; test: 10 mm tibial defect model in rabbits with calcium sulphate (Osteoset) cylinder; pQCT scans and radiographs; assay type: in vivo, NZW rabbit; conditions: for Bone formation in CT scan slice in the centre of the healing defect versus controls / Bone mineral content versus controls: 4 weeks, p<0.05; for BMC compared across groups: six weeks
Text: The following example outlines the process by which the effects of bisphosphonates on potentiating new bone formation in a graft may be observed. In this regard, the effects on bone mineralisation and the mechanical properties are observed in a 10 mm tibial defect model in rabbits.
The present experiment uses an 8-week-old NZW rabbit model. A 10 mm gap is surgically removed from the tibiae of the rabbits. The bones are held with a M-100 external fixator.
Cylinders of calcium sulphate (Osteoset) were prepared on the day of surgery. Moulds were prepared using a combination of 1.0 ml and 3.0 ml syringes, and the Osteoset poured into the moulds in a sterile environment. The cylinders were removed from the moulds at 12 minutes, and allowed to dry in air for 90 minutes, followed by final drying in a microwave for 30 seconds. Once dry, the cylinders were formed into a standard dimension of 10 mm length, with an external diameter of 9 mm and with a 3 mm diameter internal core. The cylinders weighed 0.80.9 g. The cylinders were stored in sterile environment until required.
At the commencement of the operative procedure 0.15 ml of saline, or 0.15 ml of zoledronic acid (0.05 mg/kg) was adsorbed onto a calcium sulphate cylinder, which was then replaced into the sterile container.
The operative field was prepared by shaving with clippers, disinfected with povidone iodine 4% w/v in 70% alcohol. The right tibia was exposed sub-periosteally along its length and four 3 mm Orthofix pins inserted. An M-100 monolateral external fixator (Orthofix S.L.R) was applied. A 10 mm piece of mid-diaphyseal tibia was removed using an oscillating saw, along with the central 10 mm of periosteum. A calcium sulphate cylinder was then placed in the defect, and held by slight compression of the external fixator.
The animals were randomised such that at the time of surgery, 24 animals had Osteoset cylinders with saline adsorbed inserted, 12 of whom were given saline-only infusions and 12 of whom were given 0.1 mg/kg zoledronic acid infusion at the time of surgery and again on day 14. A further 12 animals had Osteoset cylinders with 0.15 ml of zoledronic acid (0.05 mg/kg) adsorbed inserted, and given a saline only infusion. Note that in the third leg the zoledronic acid was administered to the site via the cylinder, and not directly.
Animals were culled at 28 days (18 animals) and at 42 days (18 animals) with IV pentobarbitone 150 mg/kg.
[…]. CT scans were performed at 28 days (18 animals) and at 42 days (18 animals) using a Stratec XCT Research SA pQCT scanner.

[2] = system: rabbit distraction osteogenesis model; conditions: one or two doses of IV zoledronic acid; previously documented by applicant (PCT/AU00/00982); cited from earlier work

## O=P(O)(O)C(O)(Cn1ccnc1)P(=O)(O)O [ZA, 1-hydroxy-2-[(1H-imidazol-1-yl)ethylidine]bisphosphonic acid]
[1]; IV ZA group
  Bone formation in CT scan slice in the centre of the healing defect versus controls: significant increase
  Bone mineral content versus controls: significantly increased
  BMC compared across groups: roughly the same
[1]; Local ZA group
  Bone formation in CT scan slice in the centre of the healing defect versus controls: significant increase
  Bone mineral content versus controls: significantly increased
  BMC compared across groups: roughly the same
[2]
  Amount, mineral density and strength of bone: improvements
